Reference: publication PMC9389230, “Connective tissue growth factor-targeting DNA aptamer suppresses pannus formation as diagnostics and therapeutics for rheumatoid arthritis”

What was measured:
[1] = biological target: T1, murine CTGF (serum) (mouse) (UniProt P29268); test: pull-down, Western blot; conditions: 3' PEG (high molecular mass); dot blot: nitrocellulose, 10% BSA block, 1 uM biotinylated aptamer, room temperature; pH not stated; protein in an extract; label: biotin or Cy5 depending on assay; single-stranded DNA
T1 sequence (looked up, limits assumed): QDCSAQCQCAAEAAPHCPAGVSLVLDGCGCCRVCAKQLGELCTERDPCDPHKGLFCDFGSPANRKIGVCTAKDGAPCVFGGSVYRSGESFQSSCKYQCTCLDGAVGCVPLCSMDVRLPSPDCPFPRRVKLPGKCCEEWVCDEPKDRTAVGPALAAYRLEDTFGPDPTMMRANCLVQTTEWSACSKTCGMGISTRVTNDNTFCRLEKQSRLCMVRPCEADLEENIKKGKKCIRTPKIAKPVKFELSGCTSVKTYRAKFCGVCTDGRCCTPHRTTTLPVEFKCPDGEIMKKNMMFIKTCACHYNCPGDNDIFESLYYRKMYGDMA

CTGF (CCN2) = biological target: T2, CTGF (CCN2) (UniProt P29279); test: dot blot; conditions: minimum protein 2 ng; 3' PEG (high molecular mass); dot blot: nitrocellulose, 10% BSA block, 1 uM biotinylated aptamer, room temperature; pH not stated; commercial protein; label: biotin or Cy5 depending on assay; single-stranded DNA
T2 sequence (looked up, limits assumed): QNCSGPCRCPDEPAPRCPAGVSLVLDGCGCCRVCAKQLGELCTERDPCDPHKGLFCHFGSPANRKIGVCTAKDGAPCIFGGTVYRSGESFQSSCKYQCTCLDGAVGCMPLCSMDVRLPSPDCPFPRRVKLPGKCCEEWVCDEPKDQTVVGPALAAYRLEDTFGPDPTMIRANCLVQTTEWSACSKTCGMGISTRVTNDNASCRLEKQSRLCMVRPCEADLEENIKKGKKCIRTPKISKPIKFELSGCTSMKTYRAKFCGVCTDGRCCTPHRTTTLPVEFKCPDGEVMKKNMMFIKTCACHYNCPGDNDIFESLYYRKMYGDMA

[2] = tested on: CTGF TSP1 domain / deletion mutants (SPR) (human); test: SPR; conditions: 3' PEG (high molecular mass); SPR: PBS running buffer, CTGF on CM5 chip, aptamer 9.375-600 nM, 10 ul/min (SA chip with biotinylated aptamer for cytokines and CTGF deletion mutants); recombinant protein; label: biotin or Cy5 depending on assay; single-stranded DNA
[3] = biological target: CTGF TSP1 domain / deletion mutants containing it (human) (UniProt P29279); test: cell-surface immunofluorescence; conditions: bound most tightly among domains; 3' PEG (high molecular mass); dot blot: nitrocellulose, 10% BSA block, 1 uM biotinylated aptamer, room temperature; pH not stated; protein on the cell surface; protein details: N-terminal FLAG, C-terminal GPI anchor; label: biotin or Cy5 depending on assay; single-stranded DNA

Measured: binding result

AGGCCGGGAGGGTACCCATTGATGGTGTGATGACTGCCT [AptW2-1-39-PEG]
binds: all assays above

Construct, isoform or probe ends are uncertain for at least one entry. For some of these results: Where cells or extracts were used, other partners may take part. For some of these results: Tags and fusion partners may be left off the protein sequences shown. For some of these results: At least one verdict was read from the data and is not stated in words by the source.
